Data as given in PubChem BioAssay AID504808 (Drosophila RNAi Screening Center, 2011)

Screen: 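Genes whose loss lifts activity of an E2F-responsive reporter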 (primary screen)
System: Drosophila S2 cells
Reagent: long dsRNA against Drosophila genes
Detection: 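Firefly luciferase driven by E2F sites, normalised to Renilla luciferase on the same minimal promoter, measured by plate reader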
Reading the numbers: E2F firefly: higher = more E2F reporter activity; Renilla normaliser: higher = more normaliser reporter signal
Call rule: 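Called active if the normalised E2F reporter went up by over 50%; the cutoff is arbitrary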
The deposit covers about 21,000 reagents; below is a random part of those that have a named target and a result. In the full data, 18 (0.084%) got an active call. 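Raw counts without plate normalisation, one of two replicates; the ratio scores behind the calls were not deposited.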 Entries without a mark were called inactive. Names joined by + are all predicted targets of the reagent. No sequences are given here. The record does not give: the amount of reagent, the time to read-out.

Which result is listed for tHMG1 (GeneID 42650) [DRSC16181]?
E2F firefly, rep 1: 1.20e5; Renilla normaliser, rep 1: 6849

Which result is listed for CG8229 + CG33199 [DRSC05134]?
E2F firefly, rep 1: 1.35e5; Renilla normaliser, rep 1: 5545

With futsch (GeneID 5740544) [DRSC17688], how do the results read?
E2F firefly, rep 1: 84428; Renilla normaliser, rep 1: 2737

For futsch (GeneID 5740544) [DRSC17949], what was measured?
E2F firefly, rep 1: 1.08e5; Renilla normaliser, rep 1: 5645

How did the screen score futsch (GeneID 5740544) [DRSC17952]?
E2F firefly, rep 1: 1995; Renilla normaliser, rep 1: 960

For futsch (GeneID 5740544) [DRSC18543], what was measured?
E2F firefly, rep 1: 1.27e5; Renilla normaliser, rep 1: 6071

With CG2736 (GeneID 37998) [DRSC04314], what does the deposit list?
E2F firefly, rep 1: 75476; Renilla normaliser, rep 1: 2785

What is on record for CG33120 (GeneID 326260) [DRSC02073]?
E2F firefly, rep 1: 91132; Renilla normaliser, rep 1: 3951

For CG1142 (GeneID 40894) [DRSC12531], how do the results read?
E2F firefly, rep 1: 1.18e5; Renilla normaliser, rep 1: 6123

For CG7025 (GeneID 34042) [DRSC03002], what does the deposit list?
E2F firefly, rep 1: 1.55e5; Renilla normaliser, rep 1: 5090

Which result is listed for Cyp4d21 (GeneID 34036) [DRSC03305]?
E2F firefly, rep 1: 73788; Renilla normaliser, rep 1: 3447

For CG43861 (GeneID 35284) [DRSC02308], what was measured?
E2F firefly, rep 1: 1.01e5; Renilla normaliser, rep 1: 4311

With Non1 (GeneID 35963) [DRSC05954], how do the results read?
E2F firefly, rep 1: 2399; Renilla normaliser, rep 1: 226

How did the screen score Lgr3 (GeneID 43098) [DRSC15704]?
E2F firefly, rep 1: 1.17e5; Renilla normaliser, rep 1: 5712

For Lgr3 (GeneID 43098) [DRSC15706], what was measured?
E2F firefly, rep 1: 1.06e5; Renilla normaliser, rep 1: 6286

For Npc1b (GeneID 33072) [DRSC20488], what does the deposit list?
E2F firefly, rep 1: 1.31e5; Renilla normaliser, rep 1: 7264

For Glys (GeneID 41823) [DRSC16130], how do the results read?
E2F firefly, rep 1: 77947; Renilla normaliser, rep 1: 3375

Which result is listed for CG3702 (GeneID 33628) [DRSC00628]?
E2F firefly, rep 1: 82738; Renilla normaliser, rep 1: 3707

What is on record for CG8160 (GeneID 36701) [DRSC07086]?
E2F firefly, rep 1: 1.01e5; Renilla normaliser, rep 1: 3930

How did the screen score CG31010 (GeneID 318555) [DRSC14006]?
E2F firefly, rep 1: 95711; Renilla normaliser, rep 1: 2981

With HDAC6 (GeneID 32461) [DRSC20252], how do the results read?
E2F firefly, rep 1: 7909; Renilla normaliser, rep 1: 696

With Bem46 (GeneID 44441) [DRSC00275], what does the deposit list?
E2F firefly, rep 1: 1.67e5; Renilla normaliser, rep 1: 6198

What did the screen give for CG6295 (GeneID 43247) [DRSC16012]?
E2F firefly, rep 1: 1.14e5; Renilla normaliser, rep 1: 6439

Which result is listed for rept (GeneID 40092) [DRSC11388]?
E2F firefly, rep 1: 1.42e5; Renilla normaliser, rep 1: 6225

Which result is listed for CG9961 (GeneID 33459) [DRSC00738]?
E2F firefly, rep 1: 1.72e5; Renilla normaliser, rep 1: 5325

What did the screen give for sqz (GeneID 42300) [DRSC16980]?
E2F firefly, rep 1: 1.32e5; Renilla normaliser, rep 1: 6679

With CG13833 (GeneID 42718) [DRSC14683], how do the results read?
E2F firefly, rep 1: 1.17e5; Renilla normaliser, rep 1: 6811

How did the screen score mthl9 (GeneID 38056) [DRSC08506]?
E2F firefly, rep 1: 99123; Renilla normaliser, rep 1: 3936
